PubChem BioAssay AID1259308, NCATS | 2017

- Aim: 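Candidate targets for better recombinant protein yield in mammalian cells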 (primary screen)
- Cells: human HEK293 embryonic kidney cells stably expressing firefly luciferase (HEK-CMV-Luc2-Hygro)
- Reagent: single siRNA against human genes, 0.8 pmol siRNA per well
- Time to read-out: 72 h
- Detection: 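Luciferase light (ONE-Glo) measured on one replicate plate set and viability (CellTiter-Glo) on the other, scaled to a negative control siRNA, with robust z-scores and luciferase per cell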
- Direction: total luciferase, z-score: higher = more reporter protein produced
- Call rule: 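Active when the median/MAD z-score for overall luciferase is greater than 3; a gene was taken forward for validation with new siRNAs if at least two of its three siRNAs passed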
- Calls: active = raised luciferase; inactive = no rise
The deposit covers about 59,000 reagents; below is a part drawn at random. About 1,510 of all reagents (2.6%) were called active. 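Calls use total luciferase alone and ignore viability, so some active siRNAs may act by altering cell number.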 The numbers tell different reagents against one gene apart. Further read-outs or replicates are left out here. No sequences are given here.

TSNAX #1 scored total luciferase, z-score 2.31; inactive.
Knock-down of TSNAX #2 resulted in: total luciferase, z-score -0.251; inactive.
Knock-down of TSNAX #3 came out at: total luciferase, z-score 2.08; inactive.
After knock-down of HINT3 #1, the screen gave total luciferase, z-score 0.69; inactive.
Depletion of HINT3 #2 came out at: total luciferase, z-score 0.813; inactive.
Silencing of HINT3 #3 resulted in: total luciferase, z-score -0.119; inactive.
After knock-down of SLC29A4 #1, the record shows total luciferase, z-score -1.13; inactive.
SLC29A4 #2 gave total luciferase, z-score -1.76; inactive.
Depletion of SLC29A4 #3 gave: total luciferase, z-score 1.83; inactive.

3 successive reagents already listed, for reference:
TSNAX #1 → total luciferase, z-score: 2.31; Outcome: inactive
TSNAX #2 → total luciferase, z-score: -0.251; Outcome: inactive
TSNAX #3 → total luciferase, z-score: 2.08; Outcome: inactive

Next records follow.
Silencing of SLC6A19 #1 resulted in: total luciferase, z-score 0.851; inactive.
After knock-down of SLC6A19 #2, the screen gave total luciferase, z-score -0.205; inactive.
After knock-down of SLC6A19 #3, the record shows total luciferase, z-score -0.485; inactive.
Against RPL22P3 #1, the entry reads total luciferase, z-score 0.191; inactive.
After knock-down of RPL22P3 #2, the screen gave total luciferase, z-score 0.273; inactive.
With knock-down of RPL22P3 #3, the record shows total luciferase, z-score 0.434; inactive.
PLCH2 #1 scored total luciferase, z-score 1.05; inactive.
Against PLCH2 #2, the entry reads total luciferase, z-score 1.73; inactive.
PLCH2 #3 gave total luciferase, z-score 0.0126; inactive.
Knock-down of IL4R #1 resulted in: total luciferase, z-score -0.955; inactive.
For IL4R #2, the values are total luciferase, z-score 1.71; inactive.
For IL4R #3, the entry reads total luciferase, z-score -0.124; inactive.
